# Assay results from PubChem BioAssay AID1671190 (National Center for Advancing Translational Sciences (NCATS), 2021).
# The chains behind the UniProt entries cited, without tags or fusion partners. Where a name states a change or a piece, a line headed by the entry shows the natural chain unless it says otherwise.
# UniProt P18054: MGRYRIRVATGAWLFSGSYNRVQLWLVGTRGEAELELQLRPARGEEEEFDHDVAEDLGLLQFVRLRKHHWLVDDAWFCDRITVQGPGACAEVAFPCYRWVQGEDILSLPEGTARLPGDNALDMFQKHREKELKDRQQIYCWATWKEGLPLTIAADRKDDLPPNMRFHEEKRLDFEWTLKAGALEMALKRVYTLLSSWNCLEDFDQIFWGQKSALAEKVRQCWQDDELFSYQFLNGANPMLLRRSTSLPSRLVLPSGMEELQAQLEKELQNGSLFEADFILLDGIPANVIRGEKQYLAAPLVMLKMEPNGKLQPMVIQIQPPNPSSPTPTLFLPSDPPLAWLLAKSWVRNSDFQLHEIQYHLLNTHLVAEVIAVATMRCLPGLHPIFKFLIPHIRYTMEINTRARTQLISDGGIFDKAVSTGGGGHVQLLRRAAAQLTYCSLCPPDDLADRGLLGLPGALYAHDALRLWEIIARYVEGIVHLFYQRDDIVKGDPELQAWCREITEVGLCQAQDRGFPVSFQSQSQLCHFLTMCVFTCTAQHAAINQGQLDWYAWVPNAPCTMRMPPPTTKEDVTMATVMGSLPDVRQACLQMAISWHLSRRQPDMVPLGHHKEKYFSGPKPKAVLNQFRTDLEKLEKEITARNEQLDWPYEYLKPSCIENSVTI
# Where “and” joins values, the source holds several entries; their conditions need not be identical. Equal values may be shown once. The whole screen tested about 580,000 compounds, of which about 6,100 (1.1%) were called active. The shares of active, inactive and inconclusive entries below differ from those in the screen. The call rests on the fitted dose curve; in most records, active means well fitted inhibition curve with a large enough effect; inconclusive means small, poorly fitted or top-dose-only effect, or another doubt; inactive means no such curve, though single readings can be large or run the other way. Potencies of inconclusive entries are doubtful fits and often do not repeat.
# Biological target: Polyunsaturated fatty acid lipoxygenase ALOX12 (Homo sapiens) (UniProt P18054)
# Test: Primary qHTS assay for inhibitors of human arachidonate 12S-lipoxygenase (ALOX12): Round 2
# Details: purified 12hLO, xylenol orange hydroperoxide absorbance; activity change, negative = inhibition: at 108 µM (top of the series) unless noted
# Procedure, shortened: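 Hydroperoxide product was detected by ferrous iron/xylenol orange as the 573 to 405 nm absorbance ratio. Arachidonic acid at 40 uM (final) was turned over for 30 min at room temperature by 150 nM human 12hLO, pH 7.0 Hepes buffer, after 15 min compound preincubation.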
# On the % scale 0 is the no-effect control and ±100 the full control effect; potency means the concentration at half of the fitted maximal effect.
SMILES,Potency,"activity change, negative = inhibition"
COC(=O)COc1ccc2c(C)c(-c3ccc(OC)c(OC)c3)c(=O)oc2c1,"inconclusive: 44.7 µM [inhibitor, partial curve, poor fit]",–
O=Nc1c(O)n(Cc2ccc(Cl)c(Cl)c2)c2ccccc12,–,inactive: -48.3%
Cc1ccccc1C(=NC(=O)c1ccccc1)c1ccccc1,"inconclusive: 35.5 µM [inhibitor, single point]",–
O=C(CN1C(=O)c2ccccc2S1(=O)=O)Nc1cccc(S(=O)(=O)N2CCOCC2)c1,–,inactive: -8.98%
CN(C)C(=S)N=c1ssc(=S)n1Cc1cccnc1,"inconclusive: 44.7 µM [inhibitor, partial curve, poor fit]",–
CN1/C(=C\C=[N+](C)c2ccccc2)C(C)(C)c2ccccc21,"inconclusive: 50.1 µM [inhibitor, partial curve, poor fit]",–
CC(=O)NC(NC(=S)Nc1c(C)n(C)n(-c2ccccc2)c1=O)C(Cl)(Cl)Cl (stereo not given),–,inactive: -12.2%
O=C(Nc1ccc(C(F)(F)F)cc1)C1CCN(c2nc3ccccc3o2)CC1,–,inactive: -3.33%
COC(=O)c1ccc(CNC(=O)c2ccc(C(C)C)cc2)cc1,"inconclusive: 3.55 µM [inhibitor, full curve, poor fit]",–
CCOC(=O)C1=CC[C@@H](c2ccccc2)C(C#N)(C#N)[C@H]1/C=C/c1ccccc1,–,inactive: 1.65%
Cc1noc(C)c1C(=O)NNc1cc(Cl)ccc1Cl,"inconclusive: 39.8 µM [inhibitor, partial curve, poor fit]",–
CC1Cc2ccccc2N1CC(=O)N(C)c1c(N)n(Cc2ccccc2)c(=O)[nH]c1=O (stereo not given),"inconclusive: 5.01 µM [inhibitor, full curve]",–
O=C(Nc1cccc(F)c1)[C@@H]1C[C@H](c2ccc(F)cc2)N([S+](=O)([O-])C2CC2)C1,"inconclusive: 112 µM [inhibitor, partial curve, poor fit]",–
COc1c2ccccc2nn1-c1ccc(-c2cn(Cc3ccccc3)nn2)cc1,"inconclusive: 15.8 µM [inhibitor, partial curve, poor fit]",–
CC12CCC(C(=O)NCc3ccccn3)(OC1=O)C2(C)C (stereo not given),"inconclusive: 1.78 µM [inhibitor, full curve, poor fit]",–
CCC1(C2CCN(C(=O)c3ccc(C)c(C)c3)CC2)NC(=O)N(CCc2scnc2C)C1=O (stereo not given),"inconclusive: 126 µM [inhibitor, single point]",–
COCc1nc(C2CC(Nc3ccnc4cc(Cl)ccc34)C2)cc(=O)[nH]1 (stereo not given),inactive,–
COc1ccc(C2=NN(c3ccccc3)C(c3cn(CCC(=O)O)nc3-c3ccccc3)C2)cc1 (stereo not given),"inconclusive: 89.1 µM [inhibitor, partial curve, poor fit]",–
COc1ccc(C(C(=O)Nc2ccc(C(C)C)cc2)N(Cc2ccco2)C(=O)CC2NC(=O)NC2=O)cc1 (stereo not given),"inconclusive: 44.7 µM [inhibitor, partial curve, poor fit]",–
COc1ccc(C2=C(O)C(=O)N(Cc3ccco3)C2c2ccc(C(C)C)cc2)cc1 (stereo not given),"inconclusive: 0.501 µM [inhibitor, full curve, poor fit]",–
CC(C)(C)c1ccc(C(=O)Nc2ccc(CCC(=O)O)cc2)cc1,–,inconclusive: -47.3% [inhibitor]
CCC1=C(C(=O)OC)C(c2ccc(C)cc2C)N2C(CC(=O)N3CCC(C)CC3)=CSC2=N1 (stereo not given),–,inactive: 20.9%

SMILES,Potency,"activity change, negative = inhibition"
Cc1cccc(NC(=O)CN(C)C(=O)CCc2ncc(-c3ccccc3F)o2)c1C,–,inactive: 2.88%
O=C(O)c1ccc(S(=O)(=O)N2CCCC2)cc1,"inconclusive: 1.41 µM [inhibitor, full curve, poor fit]",–
Cc1ccccc1CN1CCCn2nc(C)c(-c3cccnc3N3CCOCC3)c21,active: 28.2 µM,–
CC(C)(C)c1ccc(C(=O)NNc2cc(Cl)cc(Cl)c2)cc1,–,inactive: 148%
CCOC(=O)c1c(-c2ccc(OC)cc2)csc1NC(=O)CCN1CCOCC1,"inconclusive: 8.91 µM [inhibitor, full curve]",–
CCc1ccc(CNC(=O)C2CCN(C(=O)N3CC(CC)Oc4ccc(C)cc43)CC2)cc1 (stereo not given),"inconclusive: 56.2 µM [inhibitor, partial curve, poor fit]",–
CCOc1nc(NCCN2CCOCC2)nc(Nc2ccc([N+](=O)[O-])cc2)n1,"inconclusive: 11.2 µM [inhibitor, full curve, poor fit]",–
Fc1cccc(Cl)c1CSC1=NCCS1,"inconclusive: 89.1 µM [inhibitor, partial curve, poor fit]",–
[O-]c1c[n+](-c2ccccc2)no1,"inconclusive: 14.1 µM [inhibitor, partial curve, poor fit]",–
CCOC(=O)c1ccc(N2Cc3ccccc3C2=NC(=O)c2cccc([N+](=O)[O-])c2)cc1,"inconclusive: 44.7 µM [inhibitor, partial curve, poor fit]",–
O=c1[nH]c(NCCO)nc2c1C1(CCCCC1)Cc1ccccc1-2,"inconclusive: 100 µM [inhibitor, partial curve, poor fit]",–
CN1CCC(Cn2ccc3c(N4CCOCC4)nc(-c4cccc5[nH]ccc45)cc32)CC1,"inconclusive: 28.2 µM [inhibitor, full curve, poor fit]",–
COc1ccccc1Nc1c2c(nc3ccc(NC(=O)c4cccc(F)c4)cc13)CCCC2,"inconclusive: 89.1 µM [inhibitor, partial curve, poor fit]",–
CCOc1ccc(C2NC(=O)N(CC(=O)N3CCC(C)CC3)C3=C2C(=O)OC3)cc1 (stereo not given),–,inactive: 27.7%
Cc1cc(C)c(NC(=O)CSc2ncc(S(=O)(=O)c3ccc(C(C)(C)C)cc3)c(=O)[nH]2)c(C)c1,"inconclusive: 50.1 µM [inhibitor, partial curve, poor fit]",–
O=C(NCc1ccccc1C(F)(F)F)C1CCCN(c2cnn(Cc3ccccc3)c(=O)c2)C1 (stereo not given),–,inactive: 12.7%
O=C(CSc1nnc(Cc2cc(=O)[nH]c(=O)[nH]2)n1-c1ccccc1)NCC1CCCO1 (stereo not given),"inconclusive: 28.2 µM [inhibitor, partial curve, poor fit]",–
Cc1cccc(NC(=S)N2CCC(c3nc4ccccc4s3)CC2)c1,"inconclusive: 28.2 µM [inhibitor, partial curve]",–
CCOC(=O)c1ccsc1NC(=O)Cn1nnc(-c2ccccc2)n1,–,inconclusive: -31.3% [inhibitor]
Cc1ccc(OCc2nc(-c3ccc(C(=O)NCCc4ccc(S(N)(=O)=O)cc4)cc3)oc2C)cc1,–,inactive: 4.85%
COc1ccc(N2CCN(C(=S)NC(=O)c3cccs3)CC2)c([N+](=O)[O-])c1,"inconclusive: 44.7 µM [inhibitor, partial curve, poor fit]",–
Cn1cccc1/C=N/NC(=O)c1cccc(OC(F)(F)C(F)F)c1,–,inactive: -2.03%

# Record cards (already shown). Order of values: Potency	activity change, negative = inhibition
# COc1ccc(N2CCN(C(=S)NC(=O)c3cccs3)CC2)c([N+](=O)[O-])c1 is listed as inconclusive: 44.7 µM [inhibitor, partial curve, poor fit]	–
# CC(C)(C)c1ccc(C(=O)Nc2ccc(CCC(=O)O)cc2)cc1 is listed as –	inconclusive: -47.3% [inhibitor]
# Cc1cccc(NC(=O)CN(C)C(=O)CCc2ncc(-c3ccccc3F)o2)c1C is listed as –	inactive: 2.88%

# (continued)

SMILES,Potency,"activity change, negative = inhibition"
Cc1cn2nc(C(=O)NCc3ccccc3)cc2c(=O)[nH]1,"inconclusive: 31.6 µM [inhibitor, partial curve, poor fit]",–
Cc1ccc(-c2n[nH]c(=S)n2/N=C\c2ccco2)cc1,"inconclusive: 89.1 µM [inhibitor, partial curve, poor fit]",–
O=C(c1cccc2cnccc12)N1CCCC2(C=Cc3ccccc3O2)CC1 (stereo not given),–,inactive: -13%
Cc1ccc(S(=O)(=O)Nc2ccc(-c3cn4ccsc4n3)cc2)cc1,"inconclusive: 1.78 µM [inhibitor, partial curve, poor fit]",–
CCc1nc(Nc2ccccc2O)c2oc3ccccc3c2n1,–,inactive: 0%
O=C(C1CCC1)N1CCN(c2ccc(C(F)(F)F)cc2[N+](=O)[O-])CC1,–,inactive: 0%
C[C@@H](NC(=O)[C@@H]1C[C@@H](NC(=O)c2cnccn2)CCN1C(=O)c1ccco1)C(N)=O,–,inactive: 29.9% [at 176 µM]
Cc1noc(C)c1CCC(=O)N1CCN(S(=O)(=O)c2ccccc2F)CC1,–,inactive: 49.3%
CCc1ccccc1N1CNc2c(sc3nc(C)cc(COC)c23)C1=O,–,inactive: -17.7%
COCCNC(=O)C1(C)CCCN(Cc2cccc(F)c2)C1 (stereo not given),"inconclusive: 11.2 µM [inhibitor, full curve, poor fit]",–
O=C1CC2(CCN(Cc3cccs3)CC2)Oc2cc(Cl)ccc21,"inconclusive: 28.2 µM [inhibitor, full curve, poor fit] and inconclusive: 56.2 µM [inhibitor, single point]",–
COc1ccc(OCCN2CCC(C(=O)NC(c3ccc(F)cc3)c3ccc4ccccc4n3)CC2)cc1 (stereo not given),"inconclusive: 100 µM [inhibitor, partial curve, poor fit]",–
Cn1cc(/C=C2\SC(=O)N(c3ccc(O)cc3)C2=O)c2ccccc21,–,inactive: 0%
NNS(=O)(=O)c1ccc2c(c1)Cc1cc(S(=O)(=O)NN)ccc1-2,"inconclusive: 28.2 µM [inhibitor, partial curve, poor fit]",–
COc1ccc(S(=O)(=O)Nc2cc(C)c(O)c(S(=O)(=O)c3ccccc3)c2)cc1,"inconclusive: 2.82 µM [inhibitor, full curve, poor fit]",–
O=C(CCc1ccccc1)NNc1cc(N2CCCCC2)nc(N2CCCCC2)n1,–,inactive: 7.69%
O=C(CCc1ncc(-c2c(F)cccc2F)o1)Nc1cccc(F)c1,–,inactive: 0.913%
COc1ccc(-c2nc3cc(C)ccc3cc2CN2CCCC(C(N)=O)C2)cc1 (stereo not given),"inconclusive: 35.5 µM [inhibitor, partial curve, poor fit]",–
Cc1cccc(C)c1OCc1n[nH]c(=S)o1,active: 44.7 µM,–
CN1C(=O)c2cccc3c(N)ccc(c23)C1=O,"inconclusive: 20 µM [inhibitor, partial curve, poor fit]",–
Cc1c(C(=O)NCc2cccc(C(F)(F)F)c2)sc(=O)n1Cc1ccc(F)cc1,–,inactive: -1.3%
